Measured data: PubChem BioAssay AID504764 (Drosophila RNAi Screening Center, 2011)
Purpose: 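Knock-downs that raise or lower a Notch target reporter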 (primary screen). Cell system: Drosophila Kc167 cells. Reagent: long dsRNA against Drosophila genes. Duration: about 5 days (4 days dsRNA, then 24 h after transfection). Challenge: transfection of constitutively active membrane-tethered Notch lacking the extracellular domain, read 24 h later. Detection: 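Light from a Notch-responsive E(spl)m3 luciferase reporter under active Notch, with control-promoter and no-Notch reporter wells to normalise; raw counts from paired wells a and b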. Scale: induced reporter light, run 1, well a and induced reporter light, run 1, well b: higher = more light from the Notch target reporter with active Notch; control promoter light, run 1, well a and control promoter light, run 1, well b: higher = more light from the viral control promoter (cell number, transfection, viability); uninduced reporter light, run 1, well a: higher = more light from the Notch target reporter without active Notch. Rule for the call: 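Hit if the duplicate-averaged log2 ratio of induced to control-promoter light gives a plate-wise z beyond ±2, or induced to uninduced beyond ±1.8; weak-control or discordant-duplicate wells dropped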. Meaning of the calls: active = modifier hit (raised or lowered Notch signal); inactive = not a hit.
The deposit covers about 22,000 reagents; below is a random part of those that have a named target and a result. In the full data, 403 (1.9%) were called active. 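Unnormalised raw counts per well; ratio z-scores behind the hit calls and whether each hit raises or lowers signal are not deposited.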 The record does not give: the amount of reagent.

gene knocked down	amplicon	induced reporter light, run 1, well a	induced reporter light, run 1, well b	control promoter light, run 1, well a	control promoter light, run 1, well b	uninduced reporter light, run 1, well a	Outcome
Gycalpha99B	DRSC16690	1.92e5	1.90e5	2.47e5	2.87e5	15885	inactive
TpnC4	DRSC04856	2.61e5	2.31e5	2.78e5	2.89e5	20830	inactive
Prat	DRSC16797	1.31e5	1.30e5	85120	88970	10265	inactive
CG10265	DRSC05986	1.63e5	1.87e5	1.53e5	2.05e5	13285	inactive
MED8	DRSC06426	84050	99650	1.26e5	1.11e5	8355	inactive
topi	DRSC16431	63345	79740	98365	63085	4960	inactive
CG14424	DRSC18472	1.20e5	1.21e5	1.39e5	1.81e5	7288	inactive
Eip63E	DRSC08658	1.14e5	1.08e5	91400	25695	11965	inactive
prim	DRSC06575	1.23e5	96090	1.24e5	1.07e5	10295	inactive
CG13594	DRSC04229	1.12e5	1.06e5	87790	79880	9600	inactive
dia	DRSC03519	36965	29080	30170	23640	2800	inactive
me31B	DRSC03569	73770	1.00e5	90250	98675	7760	inactive
CG31949	DRSC00110	90040	81335	1.09e5	1.26e5	7175	inactive
aqrs	DRSC14724	1.02e5	97955	1.69e5	1.38e5	9615	inactive
Rab18	DRSC18702	1.80e5	1.82e5	2.48e5	2.16e5	12300	inactive
Rip11	DRSC20000	1.39e5	1.63e5	1.23e5	77305	11878	inactive
Adck5	DRSC10890	1.30e5	1.43e5	1.80e5	1.52e5	8030	inactive
CG34227	DRSC06788	1.11e5	1.14e5	1.36e5	1.44e5	10960	inactive
CG34227	DRSC07034	71025	81480	90050	92390	8785	inactive
PAN3	DRSC08190	1.05e5	1.34e5	1.39e5	39385	14685	inactive
CG34159	DRSC02885	15560	19180	13525	13155	4395	inactive
CG13314	DRSC09985	1.65e5	1.72e5	2.51e5	1.99e5	9340	inactive
Cyp4ae1	DRSC18455	1.81e5	2.04e5	2.88e5	2.62e5	12265	inactive
CG33229	DRSC07863	2.11e5	2.17e5	2.36e5	2.20e5	13760	inactive
puf	DRSC15875	23360	25730	13690	13200	3705	inactive
subdued	DRSC15137	1.62e5	1.73e5	2.05e5	2.09e5	15860	inactive
Wnt4	DRSC00976	24870	28255	23840	23340	4985	inactive
Wnt4	DRSC03477	1.13e5	1.02e5	1.26e5	1.26e5	6620	inactive

A stretch of the results above, for reference:
gene knocked down	amplicon	induced reporter light, run 1, well a	induced reporter light, run 1, well b	control promoter light, run 1, well a	control promoter light, run 1, well b	uninduced reporter light, run 1, well a	Outcome
MED8	DRSC06426	84050	99650	1.26e5	1.11e5	8355	inactive
topi	DRSC16431	63345	79740	98365	63085	4960	inactive
CG14424	DRSC18472	1.20e5	1.21e5	1.39e5	1.81e5	7288	inactive
Eip63E	DRSC08658	1.14e5	1.08e5	91400	25695	11965	inactive
prim	DRSC06575	1.23e5	96090	1.24e5	1.07e5	10295	inactive

Next results:
gene knocked down	amplicon	induced reporter light, run 1, well a	induced reporter light, run 1, well b	control promoter light, run 1, well a	control promoter light, run 1, well b	uninduced reporter light, run 1, well a	Outcome
Mst27D	DRSC00967	1.48e5	1.21e5	2.18e5	2.10e5	10270	inactive
Zdhhc8	DRSC18044	26165	27955	36185	29515	4110	inactive
Zdhhc8	DRSC18122	1.03e5	84180	2.01e5	2.05e5	7270	inactive
RpS15	DRSC07151	20255	15755	20560	17610	1580	inactive
CG10301	DRSC14226	1.98e5	1.67e5	2.53e5	2.32e5	14010	inactive
CG14339	DRSC00369	1.18e5	1.05e5	1.22e5	63210	11192	inactive
EndoGI	DRSC01964	1.38e5	1.32e5	1.51e5	1.68e5	10032	inactive
Hr39	DRSC03346	1.75e5	2.12e5	1.80e5	1.76e5	16420	inactive
CG32511 (retired record)	DRSC20697	1.89e5	1.75e5	3.18e5	2.89e5	13760	inactive
GC1	DRSC15322	66875	59885	83215	65720	4530	inactive
Spn43Aa	DRSC06117	1.11e5	1.51e5	1.25e5	1.28e5	10400	inactive
CG32267	DRSC21561						inactive
ND1 (retired record)	DRSC21273	99695	1.12e5	1.02e5	1.07e5	9685	inactive
Pde8	DRSC04503	68335	59060	50845	59575	4425	inactive
CG1774	DRSC15258	1.59e5	1.76e5	2.59e5	2.58e5	10835	inactive
Pgant1	DRSC07095	93845	1.05e5	1.20e5	98425	6855	inactive
Arv1	DRSC11491	2.06e5	2.34e5	2.74e5	2.83e5	21055	inactive
CG14174	DRSC10175	98760	1.06e5	1.61e5	1.70e5	4685	inactive
ppk19	DRSC15321	16215	11525	17815	14438	1050	inactive
Meics	DRSC11413	2.11e5	1.61e5	2.41e5	2.24e5	8775	inactive
rho	DRSC08734	1.30e5	1.43e5	2.13e5	2.66e5	11155	inactive
CG9777	DRSC20208	1.38e5	1.11e5	1.45e5	1.12e5	14755	inactive
